The supplement of paper PMC10849652
The list shows a part of the results.

Sequences of proteins named here, by UniProt entry; tags and fusion partners are left off. A change or cut given only in a name is not applied to a line headed by its entry.
UniProt Q96RL7: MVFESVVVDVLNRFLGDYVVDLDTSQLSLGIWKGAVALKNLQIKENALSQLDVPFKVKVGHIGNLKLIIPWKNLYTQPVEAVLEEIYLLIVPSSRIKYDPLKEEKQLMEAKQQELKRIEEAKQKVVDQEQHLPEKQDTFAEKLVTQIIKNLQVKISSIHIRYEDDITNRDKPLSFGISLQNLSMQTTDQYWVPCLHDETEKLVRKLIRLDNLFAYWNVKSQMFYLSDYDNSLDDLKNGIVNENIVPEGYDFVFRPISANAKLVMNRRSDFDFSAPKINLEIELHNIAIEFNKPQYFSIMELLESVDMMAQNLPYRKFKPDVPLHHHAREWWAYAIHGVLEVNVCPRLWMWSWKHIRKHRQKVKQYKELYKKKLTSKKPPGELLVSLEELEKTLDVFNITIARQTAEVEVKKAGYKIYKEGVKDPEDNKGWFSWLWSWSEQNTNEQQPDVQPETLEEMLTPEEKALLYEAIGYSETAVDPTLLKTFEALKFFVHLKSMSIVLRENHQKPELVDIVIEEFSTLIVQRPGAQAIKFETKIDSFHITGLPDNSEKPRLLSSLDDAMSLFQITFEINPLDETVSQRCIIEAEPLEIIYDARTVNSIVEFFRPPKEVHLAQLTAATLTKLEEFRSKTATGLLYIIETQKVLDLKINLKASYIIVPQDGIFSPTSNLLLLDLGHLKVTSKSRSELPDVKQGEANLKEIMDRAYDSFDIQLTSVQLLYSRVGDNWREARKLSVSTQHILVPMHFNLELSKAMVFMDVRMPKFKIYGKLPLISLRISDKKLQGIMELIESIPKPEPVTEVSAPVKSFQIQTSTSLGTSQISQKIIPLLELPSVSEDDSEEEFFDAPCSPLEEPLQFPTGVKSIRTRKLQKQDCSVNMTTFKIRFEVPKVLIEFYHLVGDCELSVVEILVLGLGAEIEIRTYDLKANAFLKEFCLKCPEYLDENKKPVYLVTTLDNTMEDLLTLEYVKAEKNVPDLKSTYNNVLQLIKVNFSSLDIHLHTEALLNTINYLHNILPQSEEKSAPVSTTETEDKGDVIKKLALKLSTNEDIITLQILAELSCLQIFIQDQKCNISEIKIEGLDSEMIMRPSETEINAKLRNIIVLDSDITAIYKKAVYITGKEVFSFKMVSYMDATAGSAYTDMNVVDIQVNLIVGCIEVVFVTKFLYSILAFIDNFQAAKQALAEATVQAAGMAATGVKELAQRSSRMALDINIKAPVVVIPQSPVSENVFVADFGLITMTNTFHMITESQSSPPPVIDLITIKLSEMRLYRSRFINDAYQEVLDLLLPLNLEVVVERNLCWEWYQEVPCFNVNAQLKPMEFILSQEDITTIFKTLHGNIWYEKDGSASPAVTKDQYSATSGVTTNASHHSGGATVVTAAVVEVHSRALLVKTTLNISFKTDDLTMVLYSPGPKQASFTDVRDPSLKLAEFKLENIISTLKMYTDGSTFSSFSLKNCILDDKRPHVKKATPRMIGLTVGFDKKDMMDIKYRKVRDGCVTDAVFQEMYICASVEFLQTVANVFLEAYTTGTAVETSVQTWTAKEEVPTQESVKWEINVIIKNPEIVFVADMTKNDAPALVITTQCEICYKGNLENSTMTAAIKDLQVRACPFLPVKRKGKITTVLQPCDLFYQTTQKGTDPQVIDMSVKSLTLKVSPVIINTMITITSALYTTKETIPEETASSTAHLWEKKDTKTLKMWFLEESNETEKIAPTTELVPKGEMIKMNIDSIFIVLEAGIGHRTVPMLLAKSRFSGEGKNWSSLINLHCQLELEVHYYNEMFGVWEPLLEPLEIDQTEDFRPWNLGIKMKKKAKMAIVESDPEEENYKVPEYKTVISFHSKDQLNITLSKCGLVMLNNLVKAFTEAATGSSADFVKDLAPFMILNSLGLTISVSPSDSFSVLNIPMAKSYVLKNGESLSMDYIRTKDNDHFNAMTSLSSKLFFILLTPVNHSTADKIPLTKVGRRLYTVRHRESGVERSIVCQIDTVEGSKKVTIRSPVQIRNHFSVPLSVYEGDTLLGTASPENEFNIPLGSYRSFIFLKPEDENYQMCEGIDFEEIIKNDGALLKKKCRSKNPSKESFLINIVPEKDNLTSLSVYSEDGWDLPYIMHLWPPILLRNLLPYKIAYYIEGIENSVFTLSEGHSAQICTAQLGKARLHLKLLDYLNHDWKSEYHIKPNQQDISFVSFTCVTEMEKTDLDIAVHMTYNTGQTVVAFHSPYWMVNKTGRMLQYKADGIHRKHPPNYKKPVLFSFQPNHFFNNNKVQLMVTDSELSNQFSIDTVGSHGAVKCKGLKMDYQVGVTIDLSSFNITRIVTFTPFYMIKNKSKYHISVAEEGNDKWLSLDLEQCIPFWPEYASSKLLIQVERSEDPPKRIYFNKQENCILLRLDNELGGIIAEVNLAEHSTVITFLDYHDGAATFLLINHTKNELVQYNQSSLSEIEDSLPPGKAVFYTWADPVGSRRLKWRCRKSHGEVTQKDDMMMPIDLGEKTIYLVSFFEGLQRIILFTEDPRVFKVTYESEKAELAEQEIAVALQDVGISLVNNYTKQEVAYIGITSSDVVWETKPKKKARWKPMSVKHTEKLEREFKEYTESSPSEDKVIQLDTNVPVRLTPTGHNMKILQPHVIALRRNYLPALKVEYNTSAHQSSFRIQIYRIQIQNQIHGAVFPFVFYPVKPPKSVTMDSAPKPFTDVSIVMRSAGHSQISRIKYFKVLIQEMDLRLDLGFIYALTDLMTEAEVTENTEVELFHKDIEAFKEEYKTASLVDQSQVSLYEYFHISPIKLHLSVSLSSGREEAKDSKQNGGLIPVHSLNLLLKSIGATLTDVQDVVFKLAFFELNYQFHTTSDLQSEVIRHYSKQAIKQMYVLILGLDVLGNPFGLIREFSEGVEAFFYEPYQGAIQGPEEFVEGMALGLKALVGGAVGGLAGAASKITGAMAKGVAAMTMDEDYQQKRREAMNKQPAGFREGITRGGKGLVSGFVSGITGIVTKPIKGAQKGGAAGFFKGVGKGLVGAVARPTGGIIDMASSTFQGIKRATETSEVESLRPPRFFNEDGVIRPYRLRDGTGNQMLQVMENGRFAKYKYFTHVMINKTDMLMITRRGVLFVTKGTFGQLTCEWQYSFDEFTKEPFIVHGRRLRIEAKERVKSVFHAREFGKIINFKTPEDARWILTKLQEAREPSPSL
UniProt O94967: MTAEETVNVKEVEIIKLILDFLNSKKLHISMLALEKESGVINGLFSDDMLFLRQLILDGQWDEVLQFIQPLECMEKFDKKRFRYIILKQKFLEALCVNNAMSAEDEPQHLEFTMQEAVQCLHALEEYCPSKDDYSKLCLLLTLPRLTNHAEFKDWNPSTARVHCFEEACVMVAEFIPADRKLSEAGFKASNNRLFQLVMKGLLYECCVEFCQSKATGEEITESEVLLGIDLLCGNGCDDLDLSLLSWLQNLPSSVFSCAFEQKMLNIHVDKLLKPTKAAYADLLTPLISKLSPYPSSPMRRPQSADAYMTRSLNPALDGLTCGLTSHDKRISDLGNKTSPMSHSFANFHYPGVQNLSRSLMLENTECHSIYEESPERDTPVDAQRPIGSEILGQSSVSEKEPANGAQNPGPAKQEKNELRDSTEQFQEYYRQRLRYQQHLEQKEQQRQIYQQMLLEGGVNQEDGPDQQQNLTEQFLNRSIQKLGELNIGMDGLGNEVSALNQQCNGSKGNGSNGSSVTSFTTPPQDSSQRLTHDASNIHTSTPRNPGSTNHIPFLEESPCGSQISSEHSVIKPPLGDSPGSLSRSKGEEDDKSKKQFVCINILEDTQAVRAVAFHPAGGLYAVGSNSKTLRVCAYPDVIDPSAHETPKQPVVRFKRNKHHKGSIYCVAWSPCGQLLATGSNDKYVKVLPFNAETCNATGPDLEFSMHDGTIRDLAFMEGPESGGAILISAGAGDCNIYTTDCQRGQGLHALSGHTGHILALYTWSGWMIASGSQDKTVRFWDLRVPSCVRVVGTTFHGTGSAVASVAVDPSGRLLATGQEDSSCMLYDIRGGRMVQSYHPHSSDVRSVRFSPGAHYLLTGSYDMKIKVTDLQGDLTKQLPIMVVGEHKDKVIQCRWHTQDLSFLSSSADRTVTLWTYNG
UniProt O43379: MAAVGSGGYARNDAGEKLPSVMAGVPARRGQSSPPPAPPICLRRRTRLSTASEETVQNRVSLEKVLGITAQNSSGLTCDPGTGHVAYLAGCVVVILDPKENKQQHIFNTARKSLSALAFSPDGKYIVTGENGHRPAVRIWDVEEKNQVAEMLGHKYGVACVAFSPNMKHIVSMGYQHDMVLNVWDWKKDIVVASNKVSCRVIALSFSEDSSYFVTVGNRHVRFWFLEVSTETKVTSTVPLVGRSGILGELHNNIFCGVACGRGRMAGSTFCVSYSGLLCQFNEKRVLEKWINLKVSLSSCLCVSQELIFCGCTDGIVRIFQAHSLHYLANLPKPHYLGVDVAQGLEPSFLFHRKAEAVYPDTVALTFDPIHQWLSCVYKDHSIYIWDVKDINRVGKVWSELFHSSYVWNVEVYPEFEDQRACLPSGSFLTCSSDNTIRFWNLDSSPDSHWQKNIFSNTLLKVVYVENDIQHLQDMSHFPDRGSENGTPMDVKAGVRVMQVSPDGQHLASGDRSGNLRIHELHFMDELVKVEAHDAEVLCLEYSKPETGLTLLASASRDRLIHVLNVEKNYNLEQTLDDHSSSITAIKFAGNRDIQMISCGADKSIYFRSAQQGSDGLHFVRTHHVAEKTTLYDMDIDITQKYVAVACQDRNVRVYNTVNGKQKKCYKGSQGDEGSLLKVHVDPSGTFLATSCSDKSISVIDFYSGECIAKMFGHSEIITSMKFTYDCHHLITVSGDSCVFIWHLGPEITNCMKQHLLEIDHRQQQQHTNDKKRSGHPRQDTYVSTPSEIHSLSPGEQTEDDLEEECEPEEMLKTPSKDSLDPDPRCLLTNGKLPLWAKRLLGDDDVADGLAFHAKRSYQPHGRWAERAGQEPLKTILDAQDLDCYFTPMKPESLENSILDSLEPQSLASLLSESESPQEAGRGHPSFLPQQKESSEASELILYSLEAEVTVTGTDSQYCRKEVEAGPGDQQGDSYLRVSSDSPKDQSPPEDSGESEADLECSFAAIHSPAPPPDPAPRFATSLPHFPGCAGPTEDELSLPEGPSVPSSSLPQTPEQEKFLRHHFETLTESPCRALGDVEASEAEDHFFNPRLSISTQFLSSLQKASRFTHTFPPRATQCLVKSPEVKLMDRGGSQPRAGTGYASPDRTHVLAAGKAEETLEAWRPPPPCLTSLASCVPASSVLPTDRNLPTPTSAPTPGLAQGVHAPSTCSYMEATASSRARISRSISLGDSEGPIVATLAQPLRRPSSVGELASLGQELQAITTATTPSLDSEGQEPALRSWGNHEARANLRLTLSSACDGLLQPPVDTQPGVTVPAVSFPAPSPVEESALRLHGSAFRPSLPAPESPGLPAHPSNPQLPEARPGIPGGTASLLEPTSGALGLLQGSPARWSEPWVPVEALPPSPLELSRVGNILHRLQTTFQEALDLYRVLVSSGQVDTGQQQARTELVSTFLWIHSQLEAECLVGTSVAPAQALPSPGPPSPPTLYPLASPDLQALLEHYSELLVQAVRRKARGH
UniProt P21796, whole entry, looked up: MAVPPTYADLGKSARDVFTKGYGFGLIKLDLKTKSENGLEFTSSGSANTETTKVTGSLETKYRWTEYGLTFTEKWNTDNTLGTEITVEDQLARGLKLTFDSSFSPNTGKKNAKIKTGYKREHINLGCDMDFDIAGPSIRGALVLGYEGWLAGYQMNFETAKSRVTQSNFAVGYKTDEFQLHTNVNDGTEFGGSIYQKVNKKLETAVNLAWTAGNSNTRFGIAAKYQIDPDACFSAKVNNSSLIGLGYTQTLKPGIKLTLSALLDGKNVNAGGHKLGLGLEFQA
UniProt Q9BRG1: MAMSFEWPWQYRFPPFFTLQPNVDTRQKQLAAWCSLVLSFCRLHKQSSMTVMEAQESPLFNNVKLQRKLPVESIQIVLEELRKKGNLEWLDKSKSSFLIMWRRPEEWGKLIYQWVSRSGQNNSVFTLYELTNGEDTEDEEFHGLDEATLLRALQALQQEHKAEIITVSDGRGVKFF
UniProt P08670, whole entry, looked up: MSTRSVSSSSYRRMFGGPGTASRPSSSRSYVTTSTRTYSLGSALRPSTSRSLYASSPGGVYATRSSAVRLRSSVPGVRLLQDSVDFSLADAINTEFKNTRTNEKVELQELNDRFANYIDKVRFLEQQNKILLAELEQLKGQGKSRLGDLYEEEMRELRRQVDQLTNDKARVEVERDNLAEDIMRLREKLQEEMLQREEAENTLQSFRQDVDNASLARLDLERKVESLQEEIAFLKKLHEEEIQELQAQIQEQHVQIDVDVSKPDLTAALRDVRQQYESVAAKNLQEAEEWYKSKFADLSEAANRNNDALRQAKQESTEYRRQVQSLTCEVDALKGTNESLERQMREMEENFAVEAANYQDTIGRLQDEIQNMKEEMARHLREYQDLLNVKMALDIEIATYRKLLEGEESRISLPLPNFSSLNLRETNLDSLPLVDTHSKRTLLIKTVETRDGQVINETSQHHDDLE

The targets below were run with CC1=C(C=C(C=C1)NC(=O)C2=CC(=CC=C2)N(C)C)NC(=O)C3=CC=C(C=C3)O (assay: log2 fold change, soluble protein after heating vs DMSO (PISA); higher = thermal stabilisation; K562 cells, 10 uM, 30 min; active = over 0.2 and 3.5 SD of the protein, either way, in both replicates (recomputed)).
Procedure, shortened: (§1)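 Aliquots of K562 cells (2×10^6 cells/mL) treated with 10 μM compound for 30 min were heated for 3 min over 48°C-58°C. After pooling and extraction in PBS with 0.5% NP-40 at 4°C, soluble protein from a 21,000xg, 90 min spin was quantified by TMTpro 16plex LC-MS/MS with channel sums equalised. Thermal stability is expressed against control samples, from duplicates, as a log2 fold change.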

Q: How did the log2 fold change turn out when WAPL isoform 3 (UniProt Q7Z5K2) was run?
A: inactive: -0.109

Q: Which log2 fold change does the source give for VGLL4 isoform 4 (UniProt Q14135) here?
A: inactive: -0.179

Q: For VPS13A (UniProt Q96RL7), which log2 fold change is on record?
A: inactive: 0.031

Q: For VPS53 isoform 4 (UniProt Q5VIR6), which log2 fold change is on record?
A: inactive: -0.053

Q: For WDR47 (UniProt O94967), which log2 fold change is on record?
A: inactive: -0.031

Q: WIPI2 (UniProt Q9Y4P8) was tested. Which log2 fold change did it give?
A: inactive: -0.029

Q: WDR62 isoform 4 (UniProt O43379) was tested. Which log2 fold change did it give?
A: inactive: -0.015

Q: For VPS11 (UniProt Q9H270), which log2 fold change is on record?
A: inactive: -0.003

Q: Which log2 fold change does the source give for VPS51 (UniProt Q9UID3) here?
A: inactive: -0.031

Q: How did the log2 fold change turn out when VWA8 (UniProt A3KMH1) was run?
A: inactive: 0.042

Q: How did the log2 fold change turn out when WDR4 (UniProt P57081) was run?
A: inactive: -0.055

Q: How did the log2 fold change turn out when VPS13C (UniProt Q709C8) was run?
A: inactive: 0.002

Q: For WDR82 (UniProt Q6UXN9), which log2 fold change is on record?
A: inactive: 0.008

Q: With VEZT (UniProt Q9HBM0) as the target, how does the log2 fold change read?
A: inactive: -0.041

Q: With WDR45 (UniProt Q9Y484) as the target, how does the log2 fold change read?
A: inactive: 0.015

Q: For WIPF3 (UniProt A6NGB9), which log2 fold change is on record?
A: inactive: -0.022

Q: With WDR89 (UniProt Q96FK6) as the target, how does the log2 fold change read?
A: inactive: 0.019

Q: Which log2 fold change does the source give for WDR34 (UniProt Q96EX3) here?
A: inactive: 0.232

Q: How did the log2 fold change turn out when VKORC1L1, A0A3B3ISV4 was run?
A: inactive: -0.1

Q: How did the log2 fold change turn out when WIZ (UniProt O95785) was run?
A: inactive: 0.069

Q: For VRK1 (UniProt Q99986), which log2 fold change is on record?
A: inactive: -0.121

Q: With WRAP73 (UniProt Q9P2S5) as the target, how does the log2 fold change read?
A: inactive: -0.003

Q: With VPS8 (UniProt Q8N3P4) as the target, how does the log2 fold change read?
A: inactive: -0.003

Q: With WDR36 (UniProt Q8NI36) as the target, how does the log2 fold change read?
A: inactive: -0.02

Q: For VPS41 (UniProt P49754), which log2 fold change is on record?
A: inactive: 0.003

Q: How did the log2 fold change turn out when VWDE (UniProt Q8N2E2) was run?
A: inactive: -0.039

Q: Which log2 fold change does the source give for VDAC1 (UniProt P21796) here?
A: inactive: 0.02

Q: How did the log2 fold change turn out when VPS25 (UniProt Q9BRG1) was run?
A: inactive: -0.018

Q: Which log2 fold change does the source give for WASHC2C, A0A096LPC5 here?
A: inactive: 0.062

Q: How did the log2 fold change turn out when VIM (UniProt P08670) was run?
A: inactive: -0.027

Q: For VPS35 (UniProt Q96QK1), which log2 fold change is on record?
A: inactive: 0.009

Q: For WDR48 (UniProt Q8TAF3), which log2 fold change is on record?
A: inactive: 0.009

Q: For WBP4 (UniProt O75554), which log2 fold change is on record?
A: inactive: 0.044

Each target was assayed with CC1=CC=C(C=C1)SC2=C3C=C(SC3=CN=C2)C(=O)N in the same assay as above.
Procedure, shortened: as §1

Q: WAPL isoform 3 (UniProt Q7Z5K2) was tested. Which log2 fold change did it give?
A: inactive: 0.056

Q: For VGLL4 isoform 4 (UniProt Q14135), which log2 fold change is on record?
A: inactive: -0.141

Q: VPS13A (UniProt Q96RL7) was tested. Which log2 fold change did it give?
A: inactive: 0.008

Q: How did the log2 fold change turn out when VPS53 isoform 4 (UniProt Q5VIR6) was run?
A: inactive: 0.01

Q: WDR47 (UniProt O94967) was tested. Which log2 fold change did it give?
A: inactive: 0.07

Q: How did the log2 fold change turn out when WIPI2 (UniProt Q9Y4P8) was run?
A: inactive: 0.001

Q: WDR62 isoform 4 (UniProt O43379) was tested. Which log2 fold change did it give?
A: inactive: -0.055

Q: Which log2 fold change does the source give for VPS11 (UniProt Q9H270) here?
A: inactive: 0.002

Q: With VPS51 (UniProt Q9UID3) as the target, how does the log2 fold change read?
A: inactive: -0.045

Q: VWA8 (UniProt A3KMH1) was tested. Which log2 fold change did it give?
A: inactive: 0.023

Q: With WDR4 (UniProt P57081) as the target, how does the log2 fold change read?
A: inactive: 0.173

Q: For VPS13C (UniProt Q709C8), which log2 fold change is on record?
A: inactive: 0.005

Q: Which log2 fold change does the source give for WDR82 (UniProt Q6UXN9) here?
A: inactive: -0.032

Q: VEZT (UniProt Q9HBM0) was tested. Which log2 fold change did it give?
A: inactive: -0.07

Q: Which log2 fold change does the source give for WDR45 (UniProt Q9Y484) here?
A: inactive: -0.009

Q: How did the log2 fold change turn out when WIPF3 (UniProt A6NGB9) was run?
A: inactive: 0.042

Q: How did the log2 fold change turn out when WDR89 (UniProt Q96FK6) was run?
A: inactive: -0.005

Q: How did the log2 fold change turn out when WDR34 (UniProt Q96EX3) was run?
A: inactive: 0.041

Q: VKORC1L1, A0A3B3ISV4 was tested. Which log2 fold change did it give?
A: inactive: -0.018

Q: Which log2 fold change does the source give for WIZ (UniProt O95785) here?
A: inactive: -0.018

Q: Which log2 fold change does the source give for VRK1 (UniProt Q99986) here?
A: inactive: 0.096

Q: Which log2 fold change does the source give for WRAP73 (UniProt Q9P2S5) here?
A: inactive: 0.007

Q: How did the log2 fold change turn out when VPS8 (UniProt Q8N3P4) was run?
A: inactive: -0.034

Q: WDR36 (UniProt Q8NI36) was tested. Which log2 fold change did it give?
A: inactive: -0.028

Q: Which log2 fold change does the source give for VPS41 (UniProt P49754) here?
A: inactive: 0.004

Q: For VWDE (UniProt Q8N2E2), which log2 fold change is on record?
A: inactive: -0.034

Q: For VDAC1 (UniProt P21796), which log2 fold change is on record?
A: inactive: 0.025

Q: For VPS25 (UniProt Q9BRG1), which log2 fold change is on record?
A: inactive: 0.027

Q: For WASHC2C, A0A096LPC5, which log2 fold change is on record?
A: inactive: -0.107

Q: Which log2 fold change does the source give for VIM (UniProt P08670) here?
A: inactive: 0.013

Q: How did the log2 fold change turn out when VPS35 (UniProt Q96QK1) was run?
A: inactive: 0.086

Q: How did the log2 fold change turn out when WDR48 (UniProt Q8TAF3) was run?
A: inactive: 0.005

Q: WBP4 (UniProt O75554) was tested. Which log2 fold change did it give?
A: inactive: 0.057

What follows are targets tested with CC1=NC(=CC=C1)C2=C(N=C(N2)C(C)(C)C)C3=CC4=NC=CN=C4C=C3 in the same assay as above.
Procedure, shortened: as §1

Q: With WAPL isoform 3 (UniProt Q7Z5K2) as the target, how does the log2 fold change read?
A: inactive: -0.006

Q: How did the log2 fold change turn out when VGLL4 isoform 4 (UniProt Q14135) was run?
A: inactive: 0.068

Q: With VPS13A (UniProt Q96RL7) as the target, how does the log2 fold change read?
A: inactive: 0.002

Q: With VPS53 isoform 4 (UniProt Q5VIR6) as the target, how does the log2 fold change read?
A: inactive: -0.031

Q: Which log2 fold change does the source give for WDR47 (UniProt O94967) here?
A: inactive: 0.127

Q: With WIPI2 (UniProt Q9Y4P8) as the target, how does the log2 fold change read?
A: inactive: -0.008

Q: WDR62 isoform 4 (UniProt O43379) was tested. Which log2 fold change did it give?
A: inactive: -0.033

Q: How did the log2 fold change turn out when VPS11 (UniProt Q9H270) was run?
A: inactive: 0.076

Q: Which log2 fold change does the source give for VPS51 (UniProt Q9UID3) here?
A: inactive: 0.017

Q: How did the log2 fold change turn out when VWA8 (UniProt A3KMH1) was run?
A: inactive: 0.019

Q: With WDR4 (UniProt P57081) as the target, how does the log2 fold change read?
A: inactive: 0.104

Q: With VPS13C (UniProt Q709C8) as the target, how does the log2 fold change read?
A: inactive: 0.014

Q: Which log2 fold change does the source give for WDR82 (UniProt Q6UXN9) here?
A: inactive: -0.082

Q: For VEZT (UniProt Q9HBM0), which log2 fold change is on record?
A: inactive: -0.035

Q: Which log2 fold change does the source give for WDR45 (UniProt Q9Y484) here?
A: inactive: 0.018

Q: With WIPF3 (UniProt A6NGB9) as the target, how does the log2 fold change read?
A: inactive: -0.058

Q: How did the log2 fold change turn out when WDR89 (UniProt Q96FK6) was run?
A: inactive: 0.022

Q: For WDR34 (UniProt Q96EX3), which log2 fold change is on record?
A: inactive: -0.023

Q: VKORC1L1, A0A3B3ISV4 was tested. Which log2 fold change did it give?
A: inactive: 0.053

Q: For WIZ (UniProt O95785), which log2 fold change is on record?
A: inactive: -0.006

Q: VRK1 (UniProt Q99986) was tested. Which log2 fold change did it give?
A: inactive: 0.063

Q: WRAP73 (UniProt Q9P2S5) was tested. Which log2 fold change did it give?
A: inactive: -0.043

Q: For VPS8 (UniProt Q8N3P4), which log2 fold change is on record?
A: inactive: 0.058

Q: With WDR36 (UniProt Q8NI36) as the target, how does the log2 fold change read?
A: inactive: -0.023

Q: How did the log2 fold change turn out when VPS41 (UniProt P49754) was run?
A: inactive: -0.028

Q: VWDE (UniProt Q8N2E2) was tested. Which log2 fold change did it give?
A: inactive: -0.047

Q: How did the log2 fold change turn out when VDAC1 (UniProt P21796) was run?
A: inactive: 0.012

Q: How did the log2 fold change turn out when VPS25 (UniProt Q9BRG1) was run?
A: inactive: 0.019

Q: How did the log2 fold change turn out when WASHC2C, A0A096LPC5 was run?
A: inactive: -0.041

Q: With VIM (UniProt P08670) as the target, how does the log2 fold change read?
A: inactive: -0.263

Q: For VPS35 (UniProt Q96QK1), which log2 fold change is on record?
A: inactive: 0.068

Q: For WDR48 (UniProt Q8TAF3), which log2 fold change is on record?
A: inactive: 0.009

Q: Which log2 fold change does the source give for WBP4 (UniProt O75554) here?
A: inactive: -0.036
